The odorant receptor screen of Mainland et al. (2015)
“And” between values parts separate entries of the source, which are not always exact repeats. Equal entries are not always repeated. The list shows a part of the results. Single wells; the ratio to wells without odorant was worked out here, and repeats agree poorly.

Experiments:
Test in all cases: odorant receptor activation (CRE luciferase / Renilla) (fold of no-odor wells); higher = more activation
Details in all cases: 100 µM
OR6C3 clone 1424 = test system: OR6C3 clone 1424
OR6C4 I37V clone 1412 = test system: OR6C4 I37V clone 1412
OR6C6 clone 1426 = test system: OR6C6 clone 1426
OR6C65 clone 1459 = test system: OR6C65 clone 1459
OR6C68 A45T clone 1451 = test system: OR6C68 A45T clone 1451
OR6C70 clone 1427 = test system: OR6C70 clone 1427
OR6C74 clone 1441 = test system: OR6C74 clone 1441
OR6C75 clone 1519 = test system: OR6C75 clone 1519
OR6C76 clone 1414 = test system: OR6C76 clone 1414
OR6F1 clone 1039 = test system: OR6F1 clone 1039

Row | Compound | odorant receptor activation (OR6C3 clone 1424) | odorant receptor activation (OR6C4 I37V clone 1412) | odorant receptor activation (OR6C6 clone 1426) | odorant receptor activation (OR6C65 clone 1459) | odorant receptor activation (OR6C68 A45T clone 1451) | odorant receptor activation (OR6C70 clone 1427) | odorant receptor activation (OR6C74 clone 1441) | odorant receptor activation (OR6C75 clone 1519) | odorant receptor activation (OR6C76 clone 1414) | odorant receptor activation (OR6F1 clone 1039)
1 | C=C(C)C1CC=CCC1 (stereo not given) [r-limonene] | 1.27 and 0.9 | 1.16 and 0.785 | 1.6 and 0.889 | 1.03 and 0.577 | 1.18 | 1.45 and 1.15 | 1.38 and 1.19 | 0.983 and 1.2 and 0.907 | 1.36 and 0.946 | 1.3 and 1.59
2 | C=CCc1ccc(OC(C)=O)c(OC)c1 [eugenol acetate] | 2.08 | 1.53 | 2.09 | 1.62 | 1.88 | 1.24 | 1.52 | 2.02 | 1.43 | 1.96
3 | CCCCCCCCCCC=O [undecanal] | 0.988 | 1.06 | 1.35 | 1.2 | 1.1 | 1.33 | 1.06 | 0.952 | 0.965 | 1.32
4 | C=CC(C)(O)CCC=C(C)C (stereo not given) [linalool] | 0.761 | 0.921 | 1.14 | 1.17 | 0.948 | 0.957 | 1.02 | 0.916 | 0.699 | 1.09
5 | CCCCCOC(C)=O [n-amyl acetate] | 0.741 | 0.803 | 0.718 | 0.636 and 1 | 0.845 | 1.01 | 0.965 | 0.883 and 0.77 | 0.684 | 1.51
6 | CCCCCCCCCC=O [decyl aldehyde] | 1.38 | 1.26 | 1.59 | 1.04 | 1.11 | 1.69 | 1.48 | 1.19 | 1.08 | 1.45
7 | CC12CCC(CC1)C(C)(C)O2 [cineole] | 0.114 | 0.207 | 0.193 | 0.884 | 1.07 | 0.235 | 0.138 | 0.955 | 0.157 | 0.771
8 | CC(=O)OC1CC2CCC1(C)C2(C)C (stereo not given) [isobornyl acetate] | 0.761 | 0.764 | 0.913 | 0.691 and 1.28 | 1.03 | 0.861 | 0.815 | 0.976 and 1.06 | 0.783 | 1.84
9 | CCCCCC(=O)O [caproic acid] | 0.158 | 0.283 | 0.168 | 1.04 | 0.966 | 0.214 | 0.121 | 1.06 | 0.181 | 0.991
10 | CC1CCC(C(C)C)C(O)C1 (single isomer, unassigned; (+)) [(+)-menthol] | 0.813 | 0.973 | 0.84 | 1.32 | 0.695 | 0.882 | 1.51 | 1.08 | 0.669 | 3.05
11 | CCCCCCOC(=O)CCC [hexyl butyrate] | 0.871 | 0.801 | 0.926 | 0.874 and 1.06 | 1.03 | 0.823 | 0.888 | 1.01 | 0.716 | 0.909
12 | CC/C=C\CCO [cis-3-hexen-1-ol] | 0.169 | 0.244 | 0.203 | 1.11 | 0.93 | 0.225 | 0.155 | 0.99 | 0.15 | 0.856
13 | C=C(C)C1CC=C(C)C(=O)C1 (stereo not given) [r-carvone] | 1.28 | 0.967 | 1.24 | 0.999 | 1.11 | 1.18 | 1.06 | 0.979 | 1.08 | 0.875
14 | CC(=O)C(C)=O [diacetyl] | 1.16 | 1.11 | 1.44 | 1.22 | 0.984 | 1.41 | 1.36 | 1.41 | 1.06 | 1.26
15 | COc1cc(C)ccc1O [2-methoxy-4-methylphenol] | 1.05 | 1.08 | 1.05 | 0.755 | 0.663 | 1.22 | 1.65 | 0.929 | 0.87 | 1.51
16 | CC1=CCC(C(C)(C)O)CC1 (stereo not given) [terpineol] | 1.02 | 0.886 | 0.925 | 0.888 | 0.936 | 1.07 | 1.05 | 0.998 | 0.962 | 2.25
17 | CCCCCCCCOC(C)=O [octyl acetate] | 0.915 | 1.08 | 1.15 | 0.964 | 1.19 | 0.804 | 0.835 | 0.795 | 0.702 | 0.909
18 | CC=Cc1ccc(O)c(OC)c1 [isoeugenol] | 1.94 | 1.48 | 1.71 | 1.02 and 2.44 | 3.79 | 1.38 | 1.33 | 2.43 and 1.24 | 1.56 | 1.91
19 | CC(C)CC(=O)O [isovaleric acid] | 0.659 | 0.854 | 0.927 | 1 | 1.21 | 1.1 | 0.846 | 0.692 | 0.791 | 1.32
20 | COc1cc(C=O)ccc1O [vanillin] | 0.789 | 0.852 | 0.89 | 0.975 | 0.902 | 0.988 | 0.936 | 0.95 | 1.08 | 1.19
21 | CCCC(=O)O [butyric acid] | 0.163 | 0.219 | 0.181 | 1.67 | 1.13 | 0.234 | 0.131 | 1.25 | 0.16 | 1.29
22 | c1ccc(Oc2ccccc2)cc1 [diphenyl ether] | 0.87 | 0.972 | 1.09 | 1.07 | 0.88 | 0.972 | 1.03 | 1.1 | 0.802 | 0.985
23 | CC(C)CCC(=O)O [4-methylvaleric acid] | 0.632 | 0.906 | 1.23 | 0.883 | 0.664 | 0.966 | 1.59 | 0.849 | 1.06 | 1.6

Ordered by formula weight (smallest number first): part of the list above
Row | Compound | odorant receptor activation (OR6C3 clone 1424) | odorant receptor activation (OR6C4 I37V clone 1412) | odorant receptor activation (OR6C6 clone 1426) | odorant receptor activation (OR6C65 clone 1459) | odorant receptor activation (OR6C68 A45T clone 1451) | odorant receptor activation (OR6C70 clone 1427) | odorant receptor activation (OR6C74 clone 1441) | odorant receptor activation (OR6C75 clone 1519) | odorant receptor activation (OR6C76 clone 1414) | odorant receptor activation (OR6F1 clone 1039)
14 | CC(=O)C(C)=O [diacetyl] | 1.16 | 1.11 | 1.44 | 1.22 | 0.984 | 1.41 | 1.36 | 1.41 | 1.06 | 1.26
21 | CCCC(=O)O [butyric acid] | 0.163 | 0.219 | 0.181 | 1.67 | 1.13 | 0.234 | 0.131 | 1.25 | 0.16 | 1.29
23 | CC(C)CCC(=O)O [4-methylvaleric acid] | 0.632 | 0.906 | 1.23 | 0.883 | 0.664 | 0.966 | 1.59 | 0.849 | 1.06 | 1.6

Next part

Row | Compound | odorant receptor activation (OR6C3 clone 1424) | odorant receptor activation (OR6C4 I37V clone 1412) | odorant receptor activation (OR6C6 clone 1426) | odorant receptor activation (OR6C65 clone 1459) | odorant receptor activation (OR6C68 A45T clone 1451) | odorant receptor activation (OR6C70 clone 1427) | odorant receptor activation (OR6C74 clone 1441) | odorant receptor activation (OR6C75 clone 1519) | odorant receptor activation (OR6C76 clone 1414) | odorant receptor activation (OR6F1 clone 1039)
24 | CCCCCCCOC(C)=O [heptyl acetate] | 1.09 | 0.86 | 0.988 | 0.773 and 1.31 | 0.874 | 0.861 | 0.896 | 1.14 and 0.967 | 0.853 | 1.12
25 | CCCCO [1-butanol] | 0.693 | 0.859 | 0.779 | 1.32 | 0.679 | 1.17 | 0.938 | 1.12 | 0.78 | 2.49
26 | CCC1(O)C2(C)CCC(C2)C1(C)C (stereo not given) [2-ethylfenchol] | 0.675 | 0.778 | 0.656 | 1.11 | 0.612 | 0.946 | 0.71 | 1.21 | 0.636 | 2.97
27 | O=C1CCCCCCCCCCCC(=O)OCCO1 [ethylene brassylate] | 1.53 | 1.39 | 2.06 | 1.04 | 1.67 | 1.2 | 1.78 | 1.06 | 1.25 | 2.31
28 | CCCCCCCC=O [octyl aldehyde] | 0.662 | 1.06 | 1.13 | 0.765 | 0.989 | 0.735 | 0.701 | 0.835 | 0.694 | 0.985
29 | CC12CCC(C1)C(C)(C)C2=O (stereo not given) [fenchone] | 0.913 | 0.957 | 1.05 | 0.962 | 0.849 | 0.709 | 1.12 | 1.36 | 0.741 | 1.15
30 | CCCCCCCC=CC=O [2-decenal] | 0.566 | 0.704 | 1.6 | 1.65 | 0.88 | 1.19 | 1.11 | 1.97 | 0.634 | 14
31 | CC(C)C=O [isobutyraldehyde] | 0.887 | 0.781 | 1.1 | 1.11 and 0.965 | 0.855 | 0.882 | 0.835 | 1.22 and 1.13 | 0.812 | 1.07
32 | CC(C)=CCCC(C)=CC=O [citral] | 0.196 | 0.286 | 0.224 | 1.34 | 1.86 | 0.231 | 0.162 | 1.24 | 0.204 | 1.24
33 | CCCCCC(C)=O [2-heptanone] | 1.09 | 0.855 | 0.956 | 0.818 and 0.823 | – | 1.03 | 1.24 | 1.25 and 0.66 | 0.948 | 0.722
34 | CC12C=CCC1C1CCC3CC(=O)CCC3(C)C1CC2 (stereo not given) [androstenone] | 0.762 | 0.939 | 0.942 | 1.09 | – | 0.881 | 1.33 | 0.906 | 0.911 | 1.22
35 | CC(=O)OC(C)(C)C1CC=C(C)CC1 (stereo not given) [terpinyl acetate] | 1.01 | 0.923 | 0.902 | 0.973 | 0.938 | 1.09 | 1.01 | 1.02 | 0.896 | 1.61
36 | C=CCc1ccc(O)c(OC)c1 [eugenol] | 1.41 and 1.24 | 1.3 and 1.29 | 1.5 and 1.59 | 2.7 and 1.13 and 1.02 | 1.39 | 1.77 and 1.17 | 1.88 and 1.78 | 1.24 and 1.23 and 1.53 | 1.36 and 1.13 | 2.66 and 1.67
37 | COc1ccccc1O [guaiacol] | 0.821 | 0.888 | 0.802 | 0.938 and 1.06 | 0.861 | 0.743 | 0.75 | 0.789 and 0.745 | 0.77 | 2.54
38 | c1cnccn1 [pyrazine] | 1.12 | 1.21 | 0.895 | 1.03 | 1.09 | 1.25 | 1.17 | 0.904 | 1.11 | 0.921
39 | CC(=O)c1ccccc1 [acetophenone] | 0.884 | 0.878 | 0.934 | 0.706 and 0.797 | – | 1.01 | 1.33 | 1.07 and 0.831 | 0.93 | 0.834
40 | O=CCc1ccccc1 [phenyl acetaldehyde] | 1.48 | 1.45 | 1.47 | 1.73 | 2.77 | 1.61 | 1.58 | 1.36 | 1.34 | 1.29
41 | CCCCCCC=O [heptaldehyde] | 0.968 and 0.717 | 1.09 and 0.742 | 1.13 and 0.812 | – | 1.11 | 1.05 and 0.807 | 1.23 and 0.73 | – | 0.979 and 0.862 | 0.791 and 1.47
42 | CC(C)(O)CCCC1=CCC(C=O)CC1 (stereo not given) [lyral] | – | – | – | – | 0.886 | – | – | – | – | –
43 | CC12C=CCC1C1CCC3=CC(=O)CCC3(C)C1CC2 (stereo not given) [androstadienone] | 0.986 | 0.916 | 0.932 | 0.763 and 1.31 | – | 0.911 | 0.927 | 0.91 and 0.813 | 0.85 | 1.44
44 | CC(=O)OCC=C(C)CCC=C(C)C [geranyl acetate] | 1.27 | 1.1 | 1.45 | 0.927 and 1.48 | 1.61 | 0.906 | 0.96 | 1.06 and 0.82 | 1.07 | 2.11
45 | C=CCc1ccc(OC)c(OC)c1 [eugenol methyl ether] | 1.27 | 1.57 | 1.59 | 1.12 | 1.03 | 1.4 | 1.86 | 1.4 | 1.26 | 1.95
